# Reference: PubChem BioAssay AID1347076 (National Center for Advancing Translational Sciences (NCATS), 2019)
# Out of some 400,000 compounds screened, about 13,000 (3.2%) were called active. The inconclusive results got no clear call from the source; some entries with a clear call stand among them for comparison. Calls come from the whole dose curve; as a rule, active = well fitted cell-killing curve with a large enough effect; inconclusive = small, poorly fitted or top-dose-only effect, or effect the other way; inactive = flat fitted curve, though single readings scatter. Potencies of inconclusive entries are doubtful fits and often do not repeat.
# Experiment: qHTS assay for MDR1-selective chemotherapeutics: Primary screen using the drug-selected MDR subline cells KB-V1; note: nearly all actives have a fitted effect of over 60% in size
# Details: KB-V1 MDR cells viability, CellTiter-Glo, 72 h; activity change, negative = cytotoxicity: at 46.1 µM (top of the series)
# Summary of the method: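 Potencies derive from concentration-effect curves fitted to normalized luminescence (CellTiter-Glo) of KB-V1 cells treated for 72 h at 37 degrees C in phenol-red-free DMEM containing 10% FBS.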
# % is set by controls: 0 for no effect and ±100 for the full control effect; potency is the fitted concentration of half-maximal effect.
Structure (SMILES),Potency,"activity change, negative = cytotoxicity"
Cc1cccc(N2CCN(C(=O)CCCn3c(=O)[nH]c4ccsc4c3=O)CC2C)c1 (stereo not given),"inconclusive: 29.1 µM [cytotoxic, single point]",
Cc1cc(Nc2cccc(Cl)c2)nc(-c2ccccc2O)n1,,inactive: -23.9%
Cc1ccc(-c2nc(C)sc2CC(=O)Nc2cccc(C)c2C)cc1,"inconclusive: 7.31 µM [cytotoxic, partial curve]",
O=C(NCC(c1cccs1)N1CCOCC1)C1CCN(S(=O)(=O)c2c(Cl)cccc2Cl)CC1 (stereo not given),"inconclusive: 5.17 µM [cytotoxic, full curve]",
COc1ccc(-n2nc3ccccc3n2)cc1,"inconclusive: 23.1 µM [cytotoxic, single point]",
Cc1ccc(S(=O)(=O)N(CC(=O)c2ccccc2)C(=O)N2CCN(C)CC2)cc1,,inactive: 1.04%
Cc1noc(C)c1C(=O)OCC(=O)Nc1cccc(F)c1,,inactive: 4.57%
CC1CCN(CCc2nc3cc(NC(=O)COc4ccc(Cl)cc4)ccc3n2C)CC1,,inactive: -18.3%
CCOc1ccc(S(=O)(=O)/N=C(/Nc2ccc(OC)cc2)c2ccccc2)cc1,"inconclusive: 11.6 µM [cytotoxic, partial curve]",
COc1ccc(CCNC(=O)Cn2cc(S(=O)(=O)Cc3ccccc3F)c3ccccc32)cc1OC,,inactive: -8.24%
N#CC(c1ccc(F)cc1)c1ccc(C(=O)c2ccccc2)cc1 (stereo not given),"inconclusive: 29.1 µM [cytotoxic, single point]",
N#Cc1ccccc1N/C=C/C(=O)c1ccc(Cl)cc1,"inconclusive: 16.4 µM [cytotoxic, single point]",
Cc1cc2cc(C)c(NCCNC(=O)c3cccs3)nc2cc1C,"inconclusive: 8.2 µM [cytotoxic, partial curve]",
CC(=O)Nc1ccc(C(=O)N/N=C/c2ccccc2OC(=O)c2ccc(Cl)cc2)cc1,,inactive: -25%
O=C(Nc1ccccc1)OC1CCCCc2cccnc21 (stereo not given),,inactive: -4.38%
CC(=O)Oc1ccc(/C=C2/C(=O)N(c3ccccc3)N=C2C)cc1,"inconclusive: 18.4 µM [rising, partial curve, poor fit]",
CN1OC[C@@H]2CN(C(=O)c3cccnc3)[C@H](c3ccc(N4CCCCC4)cc3)C[C@@H]21,"inconclusive: 29.1 µM [cytotoxic, single point]",
O=C(N/N=C/C(Br)=C/c1ccccc1)c1cccnc1,,inactive: 0%
O=S(=O)(c1ccc(F)c(F)c1F)N1CCN(C(=S)Nc2ccccc2)CC1,"inconclusive: 18.4 µM [cytotoxic, single point]",
Nc1ccc(-c2nc3ccccc3s2)cn1,"inconclusive: 20.6 µM [cytotoxic, single point]",

# Single values from above:
# `Cc1cccc(N2CCN(C(=O)CCCn3c(=O)[nH]c4ccsc4c3=O)CC2C)c1` (stereo not given) – Potency: inconclusive: 29.1 µM [cytotoxic, single point]
# `CC1CCN(CCc2nc3cc(NC(=O)COc4ccc(Cl)cc4)ccc3n2C)CC1` – activity change, negative = cytotoxicity: inactive: -18.3%
